Experimental data published in patent publication US10563263B2, “Genetic polymorphisms associated with statin response and cardiovascular diseases, methods of detection and uses thereof” (CELERA CORPORATION, priority 2010, dated 2020).
This continues a long series; more values of the same kind are listed elsewhere.

System: revascularization, unstable angina requiring hospitalization, MI, all causes of death, or stroke
Test: PROVE IT-TIMI 22: SNP by treatment interaction (high-dose atorvastatin vs standard-dose pravastatin), logistic regression (synergy index), primary composite endpoint
Assay type: in vivo, human

Structure (SMILES): CC(C)c1c(C(=O)Nc2ccccc2)c(-c2ccccc2)c(-c2ccc(F)cc2)n1CC[C@@H](O)C[C@@H](O)CC(=O)O [Atorvastatin, atorvastatin]
- OR (SNP rs4615971 allele C, model DOM, Imputed, ATORVA vs PRAVA): 1.347
- OR (SNP rs4628119 allele A, model DOM, Imputed, ATORVA vs PRAVA): 1.055
- OR (SNP rs4664443 allele G, model ADD, Imputed, ATORVA vs PRAVA): 1.009
- OR (SNP rs4688259 allele T, model DOM, Imputed, ATORVA vs PRAVA): 1.386
- OR (SNP rs4688632 allele G, model REC, Imputed, ATORVA vs PRAVA): 0.6822
- OR (SNP rs4695284 allele A, model ADD, Imputed, ATORVA vs PRAVA): 1.444
- OR (SNP rs4700302 allele A, model ADD, Imputed, ATORVA vs PRAVA): 1.136
- OR (SNP rs4702720 allele A, model ADD, Imputed, ATORVA vs PRAVA): 0.757
- OR (SNP rs4702720 allele A, model DOM, Imputed, ATORVA vs PRAVA): 0.6462
- OR (SNP rs4714484 allele A, model ADD, Imputed, ATORVA vs PRAVA): 0.8396
- OR (SNP rs4736802 allele G, model DOM, Imputed, ATORVA vs PRAVA): 0.9844
- OR (SNP rs4760785 allele A, model ADD, Imputed, ATORVA vs PRAVA): 0.7137
- OR (SNP rs4760785 allele A, model DOM, Imputed, ATORVA vs PRAVA): 0.7026
- OR (SNP rs4760894 allele T, model ADD, Imputed, ATORVA vs PRAVA): 0.7137
- OR (SNP rs4760894 allele T, model DOM, Imputed, ATORVA vs PRAVA): 0.7026
- OR (SNP rs4760895 allele A, model ADD, Imputed, ATORVA vs PRAVA): 0.7137
- OR (SNP rs4760895 allele A, model DOM, Imputed, ATORVA vs PRAVA): 0.7026
- OR (SNP rs4764738 allele A, model ADD, Imputed, ATORVA vs PRAVA): 0.9549
- OR (SNP rs4764974 allele T, model ADD, Imputed, ATORVA vs PRAVA): 0.9019
- OR (SNP rs4798366 allele G, model REC, Imputed, ATORVA vs PRAVA): 2.754
- OR (SNP rs4836502 allele T, model DOM, Imputed, ATORVA vs PRAVA): 0.5934
- OR (SNP rs4836507 allele C, model DOM, Imputed, ATORVA vs PRAVA): 0.5803
- OR (SNP rs4836744 allele A, model ADD, Imputed, ATORVA vs PRAVA): 0.7176
- OR (SNP rs36071725 allele C, model ADD, Genotyped, ATORVA vs PRAVA): 0.9696
- OR (SNP rs41395945 allele G, model ADD, Imputed, ATORVA vs PRAVA): 1.822
- OR (SNP rs41395945 allele G, model DOM, Imputed, ATORVA vs PRAVA): 1.919
- OR (rs152707, allele A, ADD, Imputed, PROVE-IT, vs pravastatin): 1.066
- OR (rs152712, allele C, ADD, Genotyped, PROVE-IT, vs pravastatin): 1.066
- OR (rs198460, allele G, REC, Genotyped): 1.956
- OR (rs198461 allele C (A1), DOM, Imputed, atorvastatin vs pravastatin): 0.5222
- OR (rs208026, allele A, DOM, Genotyped, PROVE-IT, vs pravastatin): 1.559
- OR (rs208029, allele T, DOM, Imputed, PROVE-IT, vs pravastatin): 1.924
- OR (rs208757, allele G, DOM, Imputed, PROVE-IT, vs pravastatin): 1.858
- OR (rs208757 allele G (A1), ADD, Imputed, atorvastatin vs pravastatin): 1.552
- OR (rs208757 allele G (A1), DOM, Imputed, atorvastatin vs pravastatin): 1.858
- OR (rs229775, allele A, REC, Imputed, PROVE-IT, vs pravastatin): 0.6598
- OR (rs229815, allele T, REC, Imputed, PROVE-IT, vs pravastatin): 0.6306
- OR (rs229829, allele C, REC, Imputed, PROVE-IT, vs pravastatin): 0.5855
- OR (rs229831, allele A, REC, Imputed, PROVE-IT, vs pravastatin): 0.6194
- OR (rs238252, allele G, DOM, Imputed, PROVE-IT, vs pravastatin): 1.191
- OR (rs264126 allele C (A1), DOM, Imputed, atorvastatin vs pravastatin): 0.6379
- OR (rs264129 allele T (A1), DOM, Imputed, atorvastatin vs pravastatin): 0.6399
- OR (rs373983 allele G, DOM, Imputed, atorvastatin vs pravastatin): 1.954
- OR (rs399485 allele A, DOM, Imputed, atorvastatin vs pravastatin): 1.648
- OR (rs483159 allele T, DOM, Imputed, atorvastatin vs pravastatin): 1.953
- OR (rs489441 allele G, DOM, Imputed, atorvastatin vs pravastatin): 1.384
- OR (rs581905 allele T, DOM, Imputed, atorvastatin vs pravastatin): 2.177
- OR (rs603940, allele G, REC, Genotyped): 0.3862
- OR (rs613799 allele C model DOM Imputed, ATORVA vs PRAVA): 1.391
- OR (rs644041 allele G model ADD Imputed, ATORVA vs PRAVA): 1.202
- OR (rs644041 allele G model DOM Imputed, ATORVA vs PRAVA): 1.351
- OR (rs670593 allele A model REC Imputed, ATORVA vs PRAVA): 0.3987
- OR (rs687047 allele C model ADD Imputed, ATORVA vs PRAVA): 0.5642
- OR (rs688358 allele A model ADD Imputed, ATORVA vs PRAVA): 0.5756
- OR (rs710832 allele A model REC Genotyped, ATORVA vs PRAVA): 0.4518
- OR (rs712531 allele A model DOM Imputed, ATORVA vs PRAVA): 2.784
- OR (rs722927 allele G model ADD Imputed, ATORVA vs PRAVA): 0.8492
- OR (rs722927 allele G model DOM Imputed, ATORVA vs PRAVA): 0.874
- OR (rs726424 allele G model ADD Genotyped, ATORVA vs PRAVA): 0.7827
- OR (rs737542 allele A model REC Imputed, ATORVA vs PRAVA): 2.077
- OR (rs742827 allele A model ADD Imputed, ATORVA vs PRAVA): 1.396
- OR (rs755117 allele A model DOM Imputed, ATORVA vs PRAVA): 0.7161
- OR (rs757173 allele G model DOM Genotyped, ATORVA vs PRAVA): 1.033
- OR (rs892575 allele T, ADD model, Imputed, atorvastatin vs pravastatin): 1.044
- OR (rs892583 allele G, ADD model, Imputed, atorvastatin vs pravastatin): 1.079
- OR (rs915494 allele A, ADD model, Imputed, atorvastatin vs pravastatin): 1.399
- OR (rs915494 allele A, DOM model, Imputed, atorvastatin vs pravastatin): 1.486
- OR (rs917295 allele G, DOM model, Imputed, atorvastatin vs pravastatin): 0.5934
- OR (rs922594 allele T, DOM model, Imputed, atorvastatin vs pravastatin): 0.5826
- OR (rs937890 allele G, DOM model, Imputed, atorvastatin vs pravastatin): 0.5127
- OR (rs949016 allele C, ADD model, Imputed, atorvastatin vs pravastatin): 1.063
- OR (rs966583 allele A, ADD model, Imputed, atorvastatin vs pravastatin): 0.7596
- OR (rs966583 allele A, DOM model, Imputed, atorvastatin vs pravastatin): 0.6781
- OR (rs974130 allele A, REC model, Genotyped, atorvastatin vs pravastatin): 0.8861
- OR (rs977160 allele T, ADD model, Imputed, atorvastatin vs pravastatin): 0.9972
- OR (rs1003148, allele C, ADD, Imputed): 0.7405
- OR (rs1003148, allele C, REC, Imputed): 0.4879
- OR (rs1008705, allele C, DOM, Imputed): 2.01
- OR (rs1012924, allele G, ADD, Imputed): 1.725
- OR (rs1012924, allele G, DOM, Imputed): 1.754
- OR (rs1017558, allele A, REC, Imputed): 0.7905
- OR (rs1030006, allele G, REC, Imputed, atorvastatin vs pravastatin): 0.87
- OR (rs1031811, allele A, REC, Imputed, atorvastatin vs pravastatin): 2.698
- OR (rs1032188, allele G, REC, Imputed): 0.3936
- OR (rs1065639, allele C, DOM, Imputed): 2.955
- OR (rs1116596, allele T, DOM, Imputed): 0.593
- OR (rs1116596, allele T, DOM, Imputed, atorvastatin vs pravastatin): 0.593
- OR (rs1149350, allele A, ADD, Imputed, atorvastatin vs pravastatin): 0.7733
- OR (rs1149350, allele A, DOM, Imputed): 0.8901
- OR (rs1149350, allele A, DOM, Imputed, atorvastatin vs pravastatin): 0.8901
- OR (rs1150143, allele G, DOM, Imputed): 1.007
- OR (rs1232298 allele G REC Imputed): 1.995
- OR (rs1241967 allele T, REC, Imputed, atorvastatin vs pravastatin): 0.6598
- OR (rs1247340 allele C DOM Imputed): 0.9041
- OR (rs1247340 allele C, ADD, Imputed, atorvastatin vs pravastatin): 0.7681
- OR (rs1247340 allele C, DOM, Imputed, atorvastatin vs pravastatin): 0.9041
- OR (rs1247341 allele C DOM Imputed): 0.919
- OR (rs1247341 allele C, ADD, Imputed, atorvastatin vs pravastatin): 0.7805
- OR (rs1247341 allele C, DOM, Imputed, atorvastatin vs pravastatin): 0.919
- OR (rs1247343 allele C, DOM, Imputed, atorvastatin vs pravastatin): 1.064
- OR (rs1321432 allele A REC Imputed): 0.9755
- OR (rs1321457 allele G REC Imputed): 0.9425
- OR (rs1335721 allele A, REC, Imputed, atorvastatin vs pravastatin): 0.8982
- OR (rs1336407 allele T DOM Imputed): 1.347
- OR (rs1336407 allele T, DOM, Imputed, atorvastatin vs pravastatin): 1.347
- OR (rs1336409 allele T DOM Imputed): 1.347
- OR (rs1336409 allele T, DOM, Imputed, atorvastatin vs pravastatin): 1.347
- OR (rs1336596 allele A DOM Imputed): 0.9849
- OR (rs1336596 allele A, DOM, Imputed, atorvastatin vs pravastatin): 0.9849
- OR (rs1343560 allele T ADD Imputed): 1.717
- OR (rs1343560 allele T DOM Imputed): 1.745
- OR (rs1355715 allele T, ADD, Imputed, atorvastatin vs pravastatin): 0.6617
- OR (rs1363273 allele C, REC, Imputed, atorvastatin vs pravastatin): 0.9417
- OR (rs1373601 allele A, DOM, Imputed, atorvastatin vs pravastatin): 0.9323
- OR (rs1386153 allele T ADD Imputed): 0.8596
- OR (rs1386153 allele T DOM Imputed): 0.8546
- OR (rs1394015 allele C DOM Imputed): 2.85
- OR (rs1407038 allele A REC Imputed): 0.9523
- OR (rs1407039 allele A REC Imputed): 0.9755
- OR (rs1414865 allele T DOM Imputed): 1.352
- OR (rs1414865 allele T, DOM, Imputed, atorvastatin vs pravastatin): 1.352
- OR (rs1414873 allele A DOM Imputed): 1.347
- OR (rs1414873 allele A, DOM, Imputed, atorvastatin vs pravastatin): 1.347
- OR (rs1414876 allele C DOM Imputed): 1.347
- OR (rs1414876 allele C, DOM, Imputed, atorvastatin vs pravastatin): 1.347
- OR (rs1418671 allele C REC Imputed): 1.095
- OR (rs1424643 allele G, ADD, Imputed, atorvastatin vs pravastatin): 1.447
- OR (rs1424643 allele G, DOM, Imputed, atorvastatin vs pravastatin): 1.694
